# Screening data, single-dose tests

Measurements from “University of Dundee, Small-Polar-MMV Screening Library” (2021), ChEMBL document CHEMBL3988442.

T. brucei: 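Whole-parasite assay of Trypanosoma brucei over 72 hours; the read-out is not stated. Compounds at 30 µM. Direction is inferred from retests: higher values go with stronger inhibition. Values scatter widely below zero; nearly all retest evidence comes from the higher of the two concentrations used. Size under these conditions: about 64,000 compounds, about 940 of them at 50% or above in at least one test.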
Leishmania in macrophages: 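Cell assay of Leishmania donovani living inside macrophages; the read-out is not stated. Compounds at 30 µM. Higher reads as stronger inhibition (inferred: compounds with an IC50 in retests scored well above the rest). About 69,000 compounds were tested under these conditions; 1.5% (about 1,000) showed 50% or more at least once.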

Results are given as percent effect. The controls that fix the scale are not given in the record; negative values are as filed. The compounds are a random part of those screened. Two or more numbers in one place are separate tests of the same structure; such repeats can differ widely.

CS(=O)(=O)N1CCCN(c2nccn3cnnc23)CC1 gave T. brucei: 12.12%; Leishmania in macrophages: 3.296%. With N#Cc1cccnc1N1CCCC(CO)(Cc2ccc(F)cc2)C1 (stereo not given) the screen gave T. brucei: -17.56%; Leishmania in macrophages: -10.56%. Result for COCCNC1(c2ccc(Cl)cc2)CCOCC1 was T. brucei: -25.8%; Leishmania in macrophages: -2.248%. For CCS(=O)(=O)N1CCc2c(COCCN(C)C)cncc2C1.O=C(O)C(F)(F)F.O=C(O)C(F)(F)F the result was T. brucei: -67.69%; Leishmania in macrophages: 30.88%. CN(Cc1ccccc1)c1ncccc1CNC1CCCC1 read T. brucei: 6.998%; Leishmania in macrophages: 26.06%. CC(=O)c1cccc(-c2c[nH]c(C)n2)c1 read T. brucei: -37.48%; Leishmania in macrophages: 18.01%. O=C(COC1CCCC1)NCc1ccc(O)c(F)c1 gave T. brucei: -11.78%; Leishmania in macrophages: -16.24%. Result for CCC[C@H]1CN(Cc2ccc3c(c2)OCCO3)C[C@@H]1NC(=O)COC was T. brucei: -5.982%; Leishmania in macrophages: 16.97%.

Result for O=C(O)C(F)(F)F.O=C(O)C(F)(F)F.O=C(O)C(F)(F)F.[H][C@@]12C[C@@H](OCc3cccc(C)n3)CN1CCN(c1ncc(C)cn1)C2 was T. brucei: -81.17%; Leishmania in macrophages: 21.71%. N#CCCNC(=O)CSc1cc(F)ccc1F gave T. brucei: -27.94%; Leishmania in macrophages: 18.2%. For Cc1ccc(CN(C)C(=O)NCC(C)(C)S(C)(=O)=O)s1 the result was T. brucei: -24.95%; Leishmania in macrophages: 2.641%. Result for CNC(=O)CS(=O)(=O)Cc1cc(Cl)c2c(c1)OCCCO2 was T. brucei: 8.408%; Leishmania in macrophages: 29.59%. O=C(O)C(F)(F)F.O=C1NCCN(CC2CC2)C12CCN(Cc1ccccc1)CC2 read T. brucei: -13.42%; Leishmania in macrophages: 6.809%. For CC(C)n1nc2c(cc1=O)CN(c1ncnc3ccsc13)CC2 the result was T. brucei: -5.835%; Leishmania in macrophages: 28.12%. With COc1nc2c(cc1C(=O)NCCCc1nnc(N)s1)CCC2 the screen gave T. brucei: 1.932%; Leishmania in macrophages: 4.425%. With [H][C@]12CC[C@]([H])(CN(S(=O)(=O)N(C)C)C1)N(Cc1ccc3c(c1)OCCO3)C2 the screen gave T. brucei: -41.08%; Leishmania in macrophages: 21.76%.

With NS(=O)(=O)CCCC(=O)N1CCC2(CC1)c1ccccc1CC2O (stereo not given) the screen gave T. brucei: -39.77%; Leishmania in macrophages: -19.63%. With CCN1CCC2(CC1)c1nc[nH]c1CCN2S(C)(=O)=O the screen gave T. brucei: -37.55%; Leishmania in macrophages: -4.418%. With Cn1ccc2ccnc(CC3CN(C(=O)c4cscn4)C3)c21 the screen gave T. brucei: 13.33%; Leishmania in macrophages: 18.75%. Clc1ccccc1C1(c2ccnc(-c3ccncc3)n2)CCNCC1 gave T. brucei: 29.88%; Leishmania in macrophages: 69.77%. For Cc1nc(N2CCOCC2)nc(C)c1NC(=O)c1ccco1 the result was T. brucei: 11.74%; Leishmania in macrophages: 2.5% & -14.64%. Result for Cc1noc(CN(C)C2CCCN(Cc3noc(C4CC4)n3)C2)n1 (stereo not given) was T. brucei: 17.73%; Leishmania in macrophages: 21.2%. For O=C(Cc1cccnc1)N1CC(Cc2nccc3cc[nH]c23)C1 the result was T. brucei: -13.58%; Leishmania in macrophages: -18.54%. Result for Cn1cnnc1-c1cncc(NCc2ccccc2Br)c1 was T. brucei: -58.08%; Leishmania in macrophages: -27.15%.

For CCOC(=O)CSc1ccc(-c2nc(C)no2)cn1 the result was T. brucei: -18.46%; Leishmania in macrophages: 18.34%. O=C(O)C(F)(F)F.[H][C@@]12CCN(C(=O)c3cnn(C)c3)[C@@]1([H])CCN2Cc1ccc(OC)cc1 read Leishmania in macrophages: -7.125%. For Cc1cc(C)n(CC2CN(Cc3nnc(C)o3)CCO2)n1 (stereo not given) the result was Leishmania in macrophages: -3.287%. O=C(O)C(F)(F)F.[H][C@@]12CCCO[C@]1([H])[C@H](OCc1cccnc1)CN2S(=O)(=O)N(C)C read T. brucei: -11.52%; Leishmania in macrophages: 23.42%. Cc1ccc(C)c(-c2csc(N)c2C#N)c1 read T. brucei: 49.07%; Leishmania in macrophages: -28.15%. COc1ccc(CNC(c2cccc(F)c2)c2cnn(C)c2)cc1 (stereo not given) gave T. brucei: -63.57%; Leishmania in macrophages: -0.7989%. With COc1cc(CNC(=O)Nc2nnc(C(C)C)s2)ccn1 the screen gave Leishmania in macrophages: -1.289%. [H][C@@]12CCN(C(=O)C3CCOCC3)[C@]1([H])CCC(=O)N2CCOC gave T. brucei: -15.69%; Leishmania in macrophages: 8.364%.

Result for CCn1c(CN2CCCC2)nnc1C1CCN(Cc2ccncc2)CC1 was T. brucei: -53.57%; Leishmania in macrophages: -6.81%. With O=C(c1ccncc1)N1CCCC(c2cc(C(F)F)n3ncnc3n2)C1 (stereo not given) the screen gave T. brucei: -10.29%; Leishmania in macrophages: -17.1%. For CN(Cc1nc(Cc2cccc(C(F)(F)F)c2)no1)CC1CCCCO1 (stereo not given) the result was T. brucei: 29.47%; Leishmania in macrophages: -12.49%. With O=C(O)C(F)(F)F.O=C(O)C(F)(F)F.[H][C@]12CCC[C@@]1(COc1ccccn1)CN(Cc1cnn(C)c1)C2 the screen gave T. brucei: -64.78%; Leishmania in macrophages: 25.73%. Result for O=C(Cc1cccs1)NC1(C(=O)NCC2CC2)CCCC1 was T. brucei: 0.9985%; Leishmania in macrophages: -0.4355%. For Cc1ccc(-n2cnnn2)cc1NCC(=O)Nc1cc(F)ccc1F the result was T. brucei: -27.17%; Leishmania in macrophages: -18.55%. Result for Cc1ccc(NC(=O)N2CCCC(O)(CO)CC2)cc1Cl (stereo not given) was T. brucei: -5.15%; Leishmania in macrophages: 20.38%. With COC(=O)c1ccc(C(=O)NCc2nn(C)c3c2COCC3)cc1 the screen gave T. brucei: -12.96%; Leishmania in macrophages: 0.4267%.

For COc1ccccc1N1CCC(CNCc2ccc(C#N)cc2)C1 (stereo not given) the result was T. brucei: 92.2%; Leishmania in macrophages: 42.72%. CC(=O)N1Cc2ccccc2C[C@H]1C(=O)N(C)CCc1ccccn1 read T. brucei: -45.35%; Leishmania in macrophages: -29.61%. Result for c1nnc(Nc2cncc(C3CCCN3CC3CC3)n2)s1 (stereo not given) was Leishmania in macrophages: -8.39%. Result for CC(C)CN(C)c1ccc(C(=O)N2CCCC2c2cnn(C)c2)cn1 (stereo not given) was T. brucei: 3.41%; Leishmania in macrophages: -0.5478%. Result for CC(NC(=O)Nc1nccs1)c1cccnc1 (stereo not given) was T. brucei: -0.8402%; Leishmania in macrophages: 27.46%.

3 of the entries, repeated:

{"structure": "NS(=O)(=O)CCCC(=O)N1CCC2(CC1)c1ccccc1CC2O", "stereo": "stereo not given", "T. brucei": -39.77, "Leishmania in macrophages": -19.63}
{"structure": "O=C(O)C(F)(F)F.O=C(O)C(F)(F)F.[H][C@]12CCC[C@@]1(COc1ccccn1)CN(Cc1cnn(C)c1)C2", "T. brucei": -64.78, "Leishmania in macrophages": 25.73}
{"structure": "O=C(Cc1cccs1)NC1(C(=O)NCC2CC2)CCCC1", "T. brucei": 0.9985, "Leishmania in macrophages": -0.4355}